The list shows a part of the results.

From paper PMC7819943, “Rice protein-binding microarrays: a tool to detect cis-acting elements near promoter regions in rice” come the findings set out here.

The test has as its target T1, OsSMF1 (Oryza sativa, UniProt Q6ZLB0 1-436).
T1 sequence: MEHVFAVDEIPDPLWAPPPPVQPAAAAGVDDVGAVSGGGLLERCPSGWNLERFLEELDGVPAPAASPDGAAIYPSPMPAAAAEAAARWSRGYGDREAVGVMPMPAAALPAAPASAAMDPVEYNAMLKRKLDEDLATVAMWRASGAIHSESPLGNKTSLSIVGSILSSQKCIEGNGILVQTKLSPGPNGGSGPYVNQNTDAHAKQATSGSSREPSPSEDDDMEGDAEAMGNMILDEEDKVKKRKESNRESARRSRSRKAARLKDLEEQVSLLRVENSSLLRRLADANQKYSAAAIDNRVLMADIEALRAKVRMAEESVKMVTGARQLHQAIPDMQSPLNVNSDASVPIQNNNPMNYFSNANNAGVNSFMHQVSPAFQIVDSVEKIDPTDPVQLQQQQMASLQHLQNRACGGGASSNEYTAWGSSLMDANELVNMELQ
Put plainly: protein-binding microarray (RPBM); PBS, 2% BSA, 51.3 ng/ul salmon testes DNA, 50 uM zinc acetate, 200 nM TF, 25 C, 1 h; high values mean tight binding. To be noted: protein: recombinant; tags: N-terminal polyhistidine and DsRed monomer fusion (pET32a); chain copies: 2; label: CyDye5-dUTP incorporated in the synthesized complementary strand; 3' TTTTT single-stranded linker to array surface; dsDNA, one strand shown. In outline:
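Binding signal is reported as fluorescence intensity per feature (arbitrary units) from an Axon 4000B scanner. Incubation used 200 nM of each Ni–NTA-purified, N-terminally polyhistidine- and DsRed-fused transcription factor from E. coli BL21-CodonPlus on a double-stranded custom Agilent array for 1 h at 25 °C, with 50 µM zinc acetate in the buffer, followed by washing.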
As for “GGCGTTCCTGCCCAACCCAGCCCTGTTGCCATCCCTACGACGGAGTCACCTAGTGCAG”, the binding signal was 3210 fluorescence intensity (a.u.).

With “TGAAGATGGGCTCCTGGCCACTCCAGCGCGACTGACCAGGCGGAGTCACCTAGTGCAG”, the binding signal was 4020 fluorescence intensity (a.u.).

With “CCCTCTTTTCTCTCACCTCCACGTAACCCCTCTCGCCTTCCGGAGTCACCTAGTGCAG”, the binding signal is 8640 fluorescence intensity (a.u.).

Take “AACCCCACGTGTACGTTTCCTCGGGTGCACGTAGCGGATGCGGAGTCACCTAGTGCAG”: the binding signal is 6050 fluorescence intensity (a.u.).

With “CTTAGCTAGGTCGATCGATCACACGTACGTGCGCGTGCATCGGAGTCACCTAGTGCAG”, the binding signal was 4880 fluorescence intensity (a.u.).

As for “AGTATGTCTAGGGGTATTTTAGATATTTCCCATCTCTCTCCGGAGTCACCTAGTGCAG”, the binding signal was 3280 fluorescence intensity (a.u.).

As to “TTTCAGCACTTCTAGATGGCCTAGTCAGCTCTGGGCTGAACGGAGTCACCTAGTGCAG”, the binding signal was 5440 fluorescence intensity (a.u.).

Regarding “CCTCGTCGTGCGCGTCCTTGGCCAGGGACGCTGACGCTGCCGGAGTCACCTAGTGCAG”, the binding signal is 4990 fluorescence intensity (a.u.).

Turning to “TCCAGCAAGCAGGCAAAGCAAGCAGCGAGCCAGCTACTGACGGAGTCACCTAGTGCAG”, the binding signal is 23000 fluorescence intensity (a.u.).

As for “GCAGAGCTGCAGTCCAACAACCATACACCTCATGTGCCGTCGGAGTCACCTAGTGCAG”, the binding signal was 3370 fluorescence intensity (a.u.).

Regarding “CTGAATTCTTACCAGTTTTGACAGTGTTCAACTAACCAAACGGAGTCACCTAGTGCAG”, the binding signal is 3280 fluorescence intensity (a.u.).

Take “TCCCTTCCTTCCGTATAGTGTAACGTACGCATCACCACCTCGGAGTCACCTAGTGCAG”: the binding signal is 4000 fluorescence intensity (a.u.).

“TATATATATATATATTCATTAACATCAATATTAATGTGGGCGGAGTCACCTAGTGCAG”: the binding signal is 30100 fluorescence intensity (a.u.).

With “GTCGAAAACACACTCGATCGATCAGAAATTCCTGTCACCACGGAGTCACCTAGTGCAG”, the binding signal was 3950 fluorescence intensity (a.u.).

Turning to “CTATTGCATCCAACGGTTGAGATGGAGCTCTGATATTATCCGGAGTCACCTAGTGCAG”, the binding signal was 3270 fluorescence intensity (a.u.).

“GCCGAAGCCGACGACACATCACCGGCGGCCACTCATCGATCGGAGTCACCTAGTGCAG”: the binding signal is 3240 fluorescence intensity (a.u.).

As for “AAGGATATGGCTTGTGAAAGAATACTAGCTGACATGTAGGCGGAGTCACCTAGTGCAG”, the binding signal is 3440 fluorescence intensity (a.u.).

Turning to “AATGAATCTAGTCACACATATAAGTCTAGATTCATTAACACGGAGTCACCTAGTGCAG”, the binding signal is 3250 fluorescence intensity (a.u.).

In the case of “GGTCACGCGAATAGGATAGTCCCAAACACATGACATGGATCGGAGTCACCTAGTGCAG”, the binding signal was 3690 fluorescence intensity (a.u.).

On to “TGAGTGACTGACTAGCTTGCATTGTGTGGAGGTCGGCACGCGGAGTCACCTAGTGCAG”, for which the binding signal was 3140 fluorescence intensity (a.u.).

On to “GATGCTGACAAGGACCAACCATTAGAGTGACCATCCCCGTCGGAGTCACCTAGTGCAG”, for which the binding signal is 4860 fluorescence intensity (a.u.).

Take “TGGACACATGCAATTGCAAACGCAGCGCGCATGTGCAACACGGAGTCACCTAGTGCAG”: the binding signal was 3800 fluorescence intensity (a.u.).

On to “AAGTCATCACGAACGTCTCACTGCTGACGGGTATATCGTCCGGAGTCACCTAGTGCAG”, for which the binding signal is 5360 fluorescence intensity (a.u.).

Consider “CCCATTTCTTGATGCGTGACGTGGCCTCCTATCTCACTGCCGGAGTCACCTAGTGCAG”, for which the binding signal was 28100 fluorescence intensity (a.u.).

“GACGTTAAACCCCACGTCCCCACCAAACCACCACCACTCTCGGAGTCACCTAGTGCAG”: the binding signal was 4660 fluorescence intensity (a.u.).

Consider “GAGTAGGATATACGTGTGTGCGTGTTAATAGGGATGAGTGCGGAGTCACCTAGTGCAG”, for which the binding signal is 4270 fluorescence intensity (a.u.).

Consider “ATACAGTACTAGGCTACTAGCTAGTGCAGTAGTCATAGTCCGGAGTCACCTAGTGCAG”, for which the binding signal was 24700 fluorescence intensity (a.u.).

As for “CATTTGCGTCCGTGGCACGTTGGGATATCTTGACCCGGAGCGGAGTCACCTAGTGCAG”, the binding signal is 5910 fluorescence intensity (a.u.).

As to “TATGCCATATATTTCCAGGTGTGGTGAAACCATGTGTCTTCGGAGTCACCTAGTGCAG”, the binding signal was 3150 fluorescence intensity (a.u.).

“AATAATTAGTTTTAAACATCATATCATAAGTCCACCACAACGGAGTCACCTAGTGCAG”: the binding signal is 3900 fluorescence intensity (a.u.).

With “TAATATGCGAAACAGCTAACGGTCCTAGCGCATAAGTTCGCGGAGTCACCTAGTGCAG”, the binding signal is 4760 fluorescence intensity (a.u.).

Regarding “ATAGTTATAGTGTAGTTACGTGGTAGTTATAATATAACTACGGAGTCACCTAGTGCAG”, the binding signal was 3320 fluorescence intensity (a.u.).

“CCTTTTCAAAATCTCCACGTCTTTTGTTTGGCGCTCCCCTCGGAGTCACCTAGTGCAG”: the binding signal was 7480 fluorescence intensity (a.u.).

Take “GCCCAGCTGCGTGCATGCACTGGTGAGCACCATATCGGTCCGGAGTCACCTAGTGCAG”: the binding signal was 3320 fluorescence intensity (a.u.).

With “TAAATATGTATTCTCTACATATGTAAGATCGACGTATCAGCGGAGTCACCTAGTGCAG”, the binding signal is 3160 fluorescence intensity (a.u.).

As for “CTATCTCTCCAACCAAACACTGTCGTATCATCCCACGTGTCGGAGTCACCTAGTGCAG”, the binding signal was 7720 fluorescence intensity (a.u.).

As for “GACGTGTGCGTCGTGCTAGCTAGAGATTAGACACGTGGACCGGAGTCACCTAGTGCAG”, the binding signal is 10800 fluorescence intensity (a.u.).

With “ATGTGGCTGACGAGGCTCTTTTGCTTTATTCTGTGGTGTGCGGAGTCACCTAGTGCAG”, the binding signal was 5830 fluorescence intensity (a.u.).

As to “TCTTAATACTACGAATATGGATATGAACCAAAATTTTGTTCGGAGTCACCTAGTGCAG”, the binding signal was 6610 fluorescence intensity (a.u.).

Take “AAGATATTGCACGTGGCATCACTGTCCATTTACTCCAATGCGGAGTCACCTAGTGCAG”: the binding signal was 9980 fluorescence intensity (a.u.).

For “TCTATCTCAATGACATGTGGGTCCACATATGTCTATGACACGGAGTCACCTAGTGCAG”, the binding signal was 4110 fluorescence intensity (a.u.).

Consider “TCAACACTGCCACACAGGCGCCATATTAGCAAAACCGCTCCGGAGTCACCTAGTGCAG”, for which the binding signal is 3270 fluorescence intensity (a.u.).

As to “TTGACCCTGCCTACTCCTACGTGGCAATCTGGCATCTGCACGGAGTCACCTAGTGCAG”, the binding signal is 11600 fluorescence intensity (a.u.).

Regarding “CATGCAAGTATGAATCACATGTGTATCAGCATCATCGTCGCGGAGTCACCTAGTGCAG”, the binding signal was 4790 fluorescence intensity (a.u.).

On to “TTCCATCTGAAGAACACGACCTGTGTGCTCAACTGTCAATCGGAGTCACCTAGTGCAG”, for which the binding signal is 6730 fluorescence intensity (a.u.).

Regarding “TTCCTGACCTTGCTCCAAATGTCACACCGTCATCTATCCACGGAGTCACCTAGTGCAG”, the binding signal is 3670 fluorescence intensity (a.u.).

Take “CAGATGGTGTGTCCAGATTCATGTACAATGATGTCACATTCGGAGTCACCTAGTGCAG”: the binding signal was 5530 fluorescence intensity (a.u.).

Turning to “CGGCGGCATCTGTTGAGCGGTTAAGGTGGTGGCATGACTGCGGAGTCACCTAGTGCAG”, the binding signal is 3770 fluorescence intensity (a.u.).

For the sequence “GGACCTGGTCAGCGCTGCTGACGTGTGAATGGCGTGTGGCCGGAGTCACCTAGTGCAG”, the binding signal is 17100 fluorescence intensity (a.u.).

With “GCCGACGGCGACCGGCCGCGTAGTACGCGTGTCATCGTCGCGGAGTCACCTAGTGCAG”, the binding signal is 7800 fluorescence intensity (a.u.).

As to “TTCACCGCTGCCACCACACCTCTCCTCTCCTCTCCTCTCCCGGAGTCACCTAGTGCAG”, the binding signal is 3240 fluorescence intensity (a.u.).

For “TTATTCAGATAATTTGATGATGATGAAAGCAGAAGCTTTGCGGAGTCACCTAGTGCAG”, the binding signal is 4140 fluorescence intensity (a.u.).

Take “AATCACATAAATTTACATGTGTCACCTTCTATGCAAAAGGCGGAGTCACCTAGTGCAG”: the binding signal was 3330 fluorescence intensity (a.u.).

As for “GAGCCGCTGATCCGCTGCACGGCGGCGCGGAGCGCGTCGACGGAGTCACCTAGTGCAG”, the binding signal was 39100 fluorescence intensity (a.u.).
